{"sequences": {"note": "By UniProt entry, the sequences of proteins in these tests, tags left out.", "SRPK1, Q96SB4, UniProt Q96SB4, whole entry": "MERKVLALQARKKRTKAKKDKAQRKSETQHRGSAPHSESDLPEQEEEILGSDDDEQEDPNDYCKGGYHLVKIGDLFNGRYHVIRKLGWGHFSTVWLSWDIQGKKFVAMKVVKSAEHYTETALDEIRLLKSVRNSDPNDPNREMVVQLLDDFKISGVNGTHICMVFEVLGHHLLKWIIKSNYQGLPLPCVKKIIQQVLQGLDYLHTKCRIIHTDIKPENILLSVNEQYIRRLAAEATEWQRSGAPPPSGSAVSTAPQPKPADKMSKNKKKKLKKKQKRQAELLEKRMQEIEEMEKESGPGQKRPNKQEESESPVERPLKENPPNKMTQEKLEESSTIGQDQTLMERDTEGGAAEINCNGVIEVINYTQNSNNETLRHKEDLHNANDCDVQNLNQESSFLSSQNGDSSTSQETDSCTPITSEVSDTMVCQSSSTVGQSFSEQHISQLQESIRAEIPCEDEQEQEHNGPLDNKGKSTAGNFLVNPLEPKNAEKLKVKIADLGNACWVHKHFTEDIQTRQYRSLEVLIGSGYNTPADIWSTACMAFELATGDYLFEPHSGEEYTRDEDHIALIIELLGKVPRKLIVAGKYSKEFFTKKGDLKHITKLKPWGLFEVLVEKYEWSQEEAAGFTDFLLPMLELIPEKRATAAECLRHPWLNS", "TF, P02787, UniProt P02787, whole entry": "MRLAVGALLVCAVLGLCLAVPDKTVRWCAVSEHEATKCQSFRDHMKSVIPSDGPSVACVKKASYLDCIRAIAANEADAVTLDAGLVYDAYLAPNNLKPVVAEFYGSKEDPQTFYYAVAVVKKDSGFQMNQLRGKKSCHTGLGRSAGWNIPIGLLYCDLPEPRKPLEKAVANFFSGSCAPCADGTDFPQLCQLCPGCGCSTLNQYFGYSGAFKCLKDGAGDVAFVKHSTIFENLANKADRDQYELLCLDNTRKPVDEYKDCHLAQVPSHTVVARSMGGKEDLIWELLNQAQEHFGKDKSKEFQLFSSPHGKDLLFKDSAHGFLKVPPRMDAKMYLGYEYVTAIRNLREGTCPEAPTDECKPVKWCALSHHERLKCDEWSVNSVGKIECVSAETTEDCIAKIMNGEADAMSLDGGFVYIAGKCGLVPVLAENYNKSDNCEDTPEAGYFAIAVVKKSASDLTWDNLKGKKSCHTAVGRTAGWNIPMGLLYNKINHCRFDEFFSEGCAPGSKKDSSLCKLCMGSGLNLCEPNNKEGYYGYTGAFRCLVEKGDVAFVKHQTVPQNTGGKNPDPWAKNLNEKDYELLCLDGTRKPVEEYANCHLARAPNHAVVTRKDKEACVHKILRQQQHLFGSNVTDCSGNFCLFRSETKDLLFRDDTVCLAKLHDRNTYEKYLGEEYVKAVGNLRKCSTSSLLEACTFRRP", "EIF4E, P06730, UniProt P06730, whole entry": "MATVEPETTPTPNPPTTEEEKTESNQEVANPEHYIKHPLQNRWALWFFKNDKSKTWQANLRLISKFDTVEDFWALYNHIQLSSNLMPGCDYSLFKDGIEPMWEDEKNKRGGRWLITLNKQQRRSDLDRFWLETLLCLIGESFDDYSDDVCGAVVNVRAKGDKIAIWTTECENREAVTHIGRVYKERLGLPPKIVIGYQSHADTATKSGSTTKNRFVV", "INTS7, Q9NVH2, UniProt Q9NVH2, whole entry": "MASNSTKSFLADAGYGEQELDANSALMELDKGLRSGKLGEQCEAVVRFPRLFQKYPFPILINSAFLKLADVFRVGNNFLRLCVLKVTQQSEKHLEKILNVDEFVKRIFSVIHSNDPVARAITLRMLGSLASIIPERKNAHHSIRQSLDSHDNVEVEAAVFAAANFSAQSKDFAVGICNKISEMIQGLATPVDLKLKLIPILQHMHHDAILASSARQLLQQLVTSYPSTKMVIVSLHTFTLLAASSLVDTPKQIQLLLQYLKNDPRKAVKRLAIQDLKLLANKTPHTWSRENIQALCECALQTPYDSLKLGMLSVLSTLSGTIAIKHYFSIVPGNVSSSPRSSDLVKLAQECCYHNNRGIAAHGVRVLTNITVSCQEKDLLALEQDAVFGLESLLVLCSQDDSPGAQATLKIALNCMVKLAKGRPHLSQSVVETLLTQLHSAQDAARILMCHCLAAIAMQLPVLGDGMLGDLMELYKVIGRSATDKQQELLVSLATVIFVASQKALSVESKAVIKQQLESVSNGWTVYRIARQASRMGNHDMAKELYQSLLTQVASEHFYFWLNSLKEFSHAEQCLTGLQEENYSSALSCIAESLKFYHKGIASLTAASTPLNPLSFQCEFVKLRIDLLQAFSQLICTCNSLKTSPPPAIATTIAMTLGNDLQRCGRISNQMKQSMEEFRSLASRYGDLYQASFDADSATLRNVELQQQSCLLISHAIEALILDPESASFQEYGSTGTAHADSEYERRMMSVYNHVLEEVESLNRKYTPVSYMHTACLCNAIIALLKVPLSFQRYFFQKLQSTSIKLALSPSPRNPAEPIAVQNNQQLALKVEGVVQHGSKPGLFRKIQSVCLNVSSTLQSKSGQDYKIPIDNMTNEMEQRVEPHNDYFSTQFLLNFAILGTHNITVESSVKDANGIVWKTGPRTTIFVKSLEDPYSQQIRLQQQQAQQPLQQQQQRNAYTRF", "SERPINA1, P01009, UniProt P01009, whole entry": "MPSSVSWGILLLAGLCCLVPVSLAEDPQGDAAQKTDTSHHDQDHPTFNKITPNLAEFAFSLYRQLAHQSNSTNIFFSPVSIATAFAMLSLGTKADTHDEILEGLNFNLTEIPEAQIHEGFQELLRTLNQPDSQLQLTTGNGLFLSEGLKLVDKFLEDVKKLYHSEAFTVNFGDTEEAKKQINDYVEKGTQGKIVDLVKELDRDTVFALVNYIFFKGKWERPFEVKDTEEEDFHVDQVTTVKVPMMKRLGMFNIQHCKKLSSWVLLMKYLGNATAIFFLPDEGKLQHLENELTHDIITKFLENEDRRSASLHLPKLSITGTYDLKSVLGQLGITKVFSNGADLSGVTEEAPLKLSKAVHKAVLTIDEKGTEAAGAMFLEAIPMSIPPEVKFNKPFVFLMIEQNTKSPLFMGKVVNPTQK"}, "source": "the supplement of paper PMC10032668", "experiment_in_all_cases": "PRISMA enrichment of interactor (LFQ) in peptide spot vs all other peptide spots (log2 fold change); higher = stronger / more specific binding of the interactor to the peptide", "key": {"AP2M1, Q96CW1": {"biological_target": "AP2M1, Q96CW1", "description": "(§1)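 PRISMA: 15-aa overlapping tiles (offset 8 aa) of 60 microproteins, plus SOS1/GLUT1 control peptides, were spot-synthesized on cellulose membranes in triplicate. Membranes were incubated with benzonase-treated HEK293T lysate, and bound proteins were identified by LC-MS/MS with LFQ. Enrichment is the log2 fold change of each protein in one spot versus all other spots. Only interactors passing the significance cutoff are listed.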"}, "MRPS16, Q9Y3D3": {"biological_target": "MRPS16, Q9Y3D3", "description": "as §1"}, "NOP53, Q9NZM5": {"biological_target": "NOP53, Q9NZM5", "description": "as §1"}, "RBL2, Q08999": {"biological_target": "RBL2, Q08999", "description": "as §1"}, "RRP1B, Q14684": {"biological_target": "RRP1B, Q14684", "description": "as §1"}, "SRPK1, Q96SB4": {"biological_target": "SRPK1, Q96SB4", "description": "as §1"}, "SUPT4H1, P63272": {"biological_target": "SUPT4H1, P63272", "description": "as §1"}, "SYNE2, Q8WXH0": {"biological_target": "SYNE2, Q8WXH0", "description": "as §1"}, "TF, P02787": {"biological_target": "TF, P02787", "description": "as §1"}, "C19orf47, Q8N9M1": {"biological_target": "C19orf47, Q8N9M1", "description": "as §1"}, "CDCA8, Q53HL2": {"biological_target": "CDCA8, Q53HL2", "description": "as §1"}, "CREB1, P16220": {"biological_target": "CREB1, P16220", "description": "as §1"}, "DECR2, Q9NUI1": {"biological_target": "DECR2, Q9NUI1", "description": "as §1"}, "EIF4E, P06730": {"biological_target": "EIF4E, P06730", "description": "as §1"}, "FGA, P02671": {"biological_target": "FGA, P02671", "description": "as §1"}, "INTS7, Q9NVH2": {"biological_target": "INTS7, Q9NVH2", "description": "as §1"}, "KTI12, Q96EK9": {"biological_target": "KTI12, Q96EK9", "description": "as §1"}, "LAMA5, O15230": {"biological_target": "LAMA5, O15230", "description": "as §1"}, "MRPS34, P82930": {"biological_target": "MRPS34, P82930", "description": "as §1"}, "NME4, O00746": {"biological_target": "NME4, O00746", "description": "as §1"}, "PCYT1A, P49585": {"biological_target": "PCYT1A, P49585", "description": "as §1"}, "PPP1R2, P41236": {"biological_target": "PPP1R2, P41236", "description": "as §1"}, "SERPINA1, P01009": {"biological_target": "SERPINA1, P01009", "description": "as §1"}, "SRSF5, Q13243": {"biological_target": "SRSF5, Q13243", "description": "as §1"}, "TMEM109, Q9BVC6": {"biological_target": "TMEM109, Q9BVC6", "description": "as §1"}, "VCP, P55072": {"biological_target": "VCP, P55072", "description": "as §1"}, "ZC3H15, Q8WU90": {"biological_target": "ZC3H15, Q8WU90", "description": "as §1"}, "ZGRF1, Q86YA3": {"biological_target": "ZGRF1, Q86YA3", "description": "as §1"}, "GTF3C5, Q9Y5Q8": {"biological_target": "GTF3C5, Q9Y5Q8", "description": "as §1"}, "IWS1, Q96ST2": {"biological_target": "IWS1, Q96ST2", "description": "as §1"}, "MRPL3, P09001": {"biological_target": "MRPL3, P09001", "description": "as §1"}, "MRPS5, P82675": {"biological_target": "MRPS5, P82675", "description": "as §1"}, "[1]": {"substrate": "PNP, P00491", "description": "as §1"}, "PRDX2, P32119": {"biological_target": "PRDX2, P32119", "description": "as §1"}, "SBDS, Q9Y3A5": {"biological_target": "SBDS, Q9Y3A5", "description": "as §1"}, "SFSWAP, Q12872": {"biological_target": "SFSWAP, Q12872", "description": "as §1"}}, "note": "The list shows a part of the results. The list holds hits alone, and they repeat only in part.", "data": [{"binder": "RLRHGQEQRLQQLLR", "note": "[RNF10]", "values": [{"measurement": "PRISMA enrichment of interactor (log2)", "setting": "AP2M1, Q96CW1", "value": 5.48}, {"measurement": "PRISMA enrichment of interactor (log2)", "setting": "MRPS16, Q9Y3D3", "value": 7.02}, {"measurement": "PRISMA enrichment of interactor (log2)", "setting": "NOP53, Q9NZM5", "value": 4.76}, {"measurement": "PRISMA enrichment of interactor (log2)", "setting": "RBL2, Q08999", "value": 4.9}, {"measurement": "PRISMA enrichment of interactor (log2)", "setting": "RRP1B, Q14684", "value": 4.71}, {"measurement": "PRISMA enrichment of interactor (log2)", "setting": "SRPK1, Q96SB4", "value": 6.16}, {"measurement": "PRISMA enrichment of interactor (log2)", "setting": "SUPT4H1, P63272", "value": 4.49}, {"measurement": "PRISMA enrichment of interactor (log2)", "setting": "SYNE2, Q8WXH0", "value": 4.67}, {"measurement": "PRISMA enrichment of interactor (log2)", "setting": "TF, P02787", "value": 4.44}]}, {"binder": "LHGARLSPLSRNIRG", "note": "[IDI2-AS1]", "values": [{"measurement": "PRISMA enrichment of interactor (log2)", "setting": "AP2M1, Q96CW1", "value": 5.53}, {"measurement": "PRISMA enrichment of interactor (log2)", "setting": "C19orf47, Q8N9M1", "value": 5.8}, {"measurement": "PRISMA enrichment of interactor (log2)", "setting": "CDCA8, Q53HL2", "value": 6.34}, {"measurement": "PRISMA enrichment of interactor (log2)", "setting": "CREB1, P16220", "value": 6.2}, {"measurement": "PRISMA enrichment of interactor (log2)", "setting": "DECR2, Q9NUI1", "value": 8.86}, {"measurement": "PRISMA enrichment of interactor (log2)", "setting": "EIF4E, P06730", "value": 5.45}, {"measurement": "PRISMA enrichment of interactor (log2)", "setting": "FGA, P02671", "value": 4.29}, {"measurement": "PRISMA enrichment of interactor (log2)", "setting": "INTS7, Q9NVH2", "value": 6.41}, {"measurement": "PRISMA enrichment of interactor (log2)", "setting": "KTI12, Q96EK9", "value": 4.1}, {"measurement": "PRISMA enrichment of interactor (log2)", "setting": "LAMA5, O15230", "value": 5.04}, {"measurement": "PRISMA enrichment of interactor (log2)", "setting": "MRPS34, P82930", "value": 6.59}, {"measurement": "PRISMA enrichment of interactor (log2)", "setting": "NME4, O00746", "value": 5.76}, {"measurement": "PRISMA enrichment of interactor (log2)", "setting": "NOP53, Q9NZM5", "value": 6.41}, {"measurement": "PRISMA enrichment of interactor (log2)", "setting": "PCYT1A, P49585", "value": 4.89}, {"measurement": "PRISMA enrichment of interactor (log2)", "setting": "PPP1R2, P41236", "value": 5.72}, {"measurement": "PRISMA enrichment of interactor (log2)", "setting": "SERPINA1, P01009", "value": 5.48}, {"measurement": "PRISMA enrichment of interactor (log2)", "setting": "SRSF5, Q13243", "value": 5.61}, {"measurement": "PRISMA enrichment of interactor (log2)", "setting": "SUPT4H1, P63272", "value": 6.74}, {"measurement": "PRISMA enrichment of interactor (log2)", "setting": "TMEM109, Q9BVC6", "value": 4.61}, {"measurement": "PRISMA enrichment of interactor (log2)", "setting": "VCP, P55072", "value": 4.83}, {"measurement": "PRISMA enrichment of interactor (log2)", "setting": "ZC3H15, Q8WU90", "value": 7.16}, {"measurement": "PRISMA enrichment of interactor (log2)", "setting": "ZGRF1, Q86YA3", "value": 6.66}]}, {"binder": "LLHYDPVVKQRVLFV", "note": "[MRPL33]", "values": [{"measurement": "PRISMA enrichment of interactor (log2)", "setting": "AP2M1, Q96CW1", "value": 5.54}, {"measurement": "PRISMA enrichment of interactor (log2)", "setting": "GTF3C5, Q9Y5Q8", "value": 4.65}, {"measurement": "PRISMA enrichment of interactor (log2)", "setting": "IWS1, Q96ST2", "value": 5.44}, {"measurement": "PRISMA enrichment of interactor (log2)", "setting": "MRPL3, P09001", "value": 6.32}, {"measurement": "PRISMA enrichment of interactor (log2)", "setting": "MRPS5, P82675", "value": 8.14}, {"measurement": "PRISMA enrichment of interactor (log2)", "setting": "[1]", "value": 6.84}, {"measurement": "PRISMA enrichment of interactor (log2)", "setting": "PRDX2, P32119", "value": 4.5}, {"measurement": "PRISMA enrichment of interactor (log2)", "setting": "SBDS, Q9Y3A5", "value": 4.92}, {"measurement": "PRISMA enrichment of interactor (log2)", "setting": "SFSWAP, Q12872", "value": 5.12}]}]}
